Results are given in words; binding and its absence hold for the method and conditions named. In cells and extracts the contact can be indirect. Some entries that bind do so weakly or less than the wild type.
Target: TRAF2- and NCK-interacting protein kinase (TNIK) (human (endogenous in U2OS)) (UniProt Q9UKE5)
Test: co-IP; nuclear protein extract of U2OS cells (NE-PER); incubated at 4°C overnight with anti-TNIK, anti-PPARγ or relevant control IgG; precipitated with Dynabeads protein G; immunoblotted with anti-TNIK and anti-PPARγ

Sequences of proteins named here, by UniProt entry; tags and fusion partners are left off.
UniProt Q9UKE5: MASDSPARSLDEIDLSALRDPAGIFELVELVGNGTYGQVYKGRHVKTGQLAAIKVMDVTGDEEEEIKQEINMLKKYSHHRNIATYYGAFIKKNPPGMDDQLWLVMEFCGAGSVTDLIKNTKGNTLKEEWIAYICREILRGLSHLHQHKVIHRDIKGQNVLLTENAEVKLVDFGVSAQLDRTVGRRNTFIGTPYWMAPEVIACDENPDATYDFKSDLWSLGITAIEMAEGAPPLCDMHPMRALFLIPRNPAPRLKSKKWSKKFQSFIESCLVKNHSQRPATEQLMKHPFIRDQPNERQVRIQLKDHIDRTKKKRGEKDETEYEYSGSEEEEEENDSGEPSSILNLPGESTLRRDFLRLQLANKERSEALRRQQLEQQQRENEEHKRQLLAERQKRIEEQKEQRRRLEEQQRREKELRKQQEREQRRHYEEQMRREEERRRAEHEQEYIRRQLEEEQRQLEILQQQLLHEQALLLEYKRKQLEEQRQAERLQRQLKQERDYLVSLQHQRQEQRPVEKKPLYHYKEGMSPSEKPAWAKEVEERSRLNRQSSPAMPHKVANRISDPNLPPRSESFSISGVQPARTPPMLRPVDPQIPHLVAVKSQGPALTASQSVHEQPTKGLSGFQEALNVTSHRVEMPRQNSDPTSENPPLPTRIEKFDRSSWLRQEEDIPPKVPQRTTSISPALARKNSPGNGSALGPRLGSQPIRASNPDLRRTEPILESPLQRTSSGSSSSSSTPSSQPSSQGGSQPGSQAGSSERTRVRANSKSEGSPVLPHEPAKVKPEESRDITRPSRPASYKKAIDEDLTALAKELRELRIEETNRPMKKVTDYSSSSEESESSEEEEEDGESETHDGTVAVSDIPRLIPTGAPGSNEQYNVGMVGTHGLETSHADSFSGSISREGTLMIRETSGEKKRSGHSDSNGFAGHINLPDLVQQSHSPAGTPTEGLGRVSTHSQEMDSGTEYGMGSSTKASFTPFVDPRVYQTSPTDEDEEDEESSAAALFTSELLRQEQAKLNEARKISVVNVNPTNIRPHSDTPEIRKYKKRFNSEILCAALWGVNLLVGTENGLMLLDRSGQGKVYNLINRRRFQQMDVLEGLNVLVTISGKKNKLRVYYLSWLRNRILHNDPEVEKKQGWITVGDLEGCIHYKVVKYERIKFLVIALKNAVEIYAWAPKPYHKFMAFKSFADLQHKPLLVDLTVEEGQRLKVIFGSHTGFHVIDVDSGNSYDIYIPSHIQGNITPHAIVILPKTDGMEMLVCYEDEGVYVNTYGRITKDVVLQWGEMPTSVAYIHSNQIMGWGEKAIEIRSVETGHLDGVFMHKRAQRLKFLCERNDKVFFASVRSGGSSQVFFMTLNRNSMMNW
UniProt P37231: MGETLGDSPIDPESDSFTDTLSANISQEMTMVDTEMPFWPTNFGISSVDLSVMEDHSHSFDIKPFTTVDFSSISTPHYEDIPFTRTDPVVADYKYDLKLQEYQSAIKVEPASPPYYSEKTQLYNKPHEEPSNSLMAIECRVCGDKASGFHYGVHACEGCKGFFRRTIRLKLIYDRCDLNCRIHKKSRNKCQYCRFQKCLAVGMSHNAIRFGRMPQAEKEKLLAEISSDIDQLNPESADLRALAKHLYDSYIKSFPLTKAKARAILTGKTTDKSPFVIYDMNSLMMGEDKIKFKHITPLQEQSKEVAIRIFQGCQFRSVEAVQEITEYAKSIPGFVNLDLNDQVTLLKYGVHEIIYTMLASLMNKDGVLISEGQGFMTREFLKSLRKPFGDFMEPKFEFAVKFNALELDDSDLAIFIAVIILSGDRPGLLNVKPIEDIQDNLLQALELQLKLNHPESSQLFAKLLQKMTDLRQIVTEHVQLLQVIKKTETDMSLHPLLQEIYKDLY

PPARγ (from UniProt P37231 1-505)
binding: binds
